Source: article PMC10026764, “Overcoming the imatinib-resistant BCR-ABL mutants with new ureidobenzothiazole chemotypes endowed with potent and broad-spectrum anticancer activity” (Journal of Enzyme Inhibition and Medicinal Chemistry, 2023)

System: DDR1
Assay: Kinase selectivity test against DDR1
Type: biochemical
Conditions: IC50 DDR1 / IC50 BCR-ABL
Description: On the other hand, to gain certain insights about the kinase selectivity of this array of ureidobenzothiazoles, compounds 2a and 2b were tested against DDR1 (Figure 4). Discoidin domain receptors (DDR1/2) are transmembrane receptor tyrosine kinases (RTKs), activated by fibrillar collagens. DDR1/2 and BCR-ABL share almost 61% sequence similarities in their ATP binding domains. […] This observation points out the merit of these ureidobenzothiazoles over the known BCR-ABL inhibitors in achieving exceptional selectivity towards BCR-ABL.

Row | SMILES | selectivity for BCR-ABL over DDR1 [folds]
1 | COc1ccccc1-c1ccc2nc(NC(=O)Nc3ccc(N4CCN(C)CC4)cc3)sc2c1 [Compound 2a] | 130
2 | CCN1CCN(c2ccc(NC(=O)Nc3nc4ccc(-c5ccccc5OC)cc4s3)cc2)CC1 [Compound 2b] | 284
